Experimental data: paper PMC7862700
The entries are a selection whose mix differs from that of the whole data set. At the low end of the ranking the order means little.

Assays:
Experiment in all cases: DAPPL (digital affinity profiling via proximity ligation, sequencing)
Conditions in all cases: 10 mM Tris-HCl pH 7.5, 50 mM NaCl, 1 mM DTT, 4% glycerol, room temperature, 30 min; GST-TFs on glutathione beads, 16-mer random dsDNA library, 0.1% …; high values mean tight binding; double strand, one strand shown; scale: fold enrichment (6-mer frequency, TF over GST control)
ELK1 = biological target: T1, ELK1 (UniProt P19419)
T1 sequence: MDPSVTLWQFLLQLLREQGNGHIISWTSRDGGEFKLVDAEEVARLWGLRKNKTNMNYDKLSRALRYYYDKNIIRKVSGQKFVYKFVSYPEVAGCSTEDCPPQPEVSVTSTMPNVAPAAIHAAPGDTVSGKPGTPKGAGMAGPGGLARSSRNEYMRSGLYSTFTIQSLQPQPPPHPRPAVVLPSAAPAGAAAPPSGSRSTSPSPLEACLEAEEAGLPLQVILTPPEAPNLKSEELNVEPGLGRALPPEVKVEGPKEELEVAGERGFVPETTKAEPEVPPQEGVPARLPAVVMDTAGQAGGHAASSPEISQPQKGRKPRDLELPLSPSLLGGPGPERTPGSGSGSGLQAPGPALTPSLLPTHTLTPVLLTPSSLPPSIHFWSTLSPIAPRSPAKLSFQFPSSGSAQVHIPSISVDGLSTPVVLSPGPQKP

ELK3 = biological target: T2, ELK3 (UniProt P41970)
T2 sequence: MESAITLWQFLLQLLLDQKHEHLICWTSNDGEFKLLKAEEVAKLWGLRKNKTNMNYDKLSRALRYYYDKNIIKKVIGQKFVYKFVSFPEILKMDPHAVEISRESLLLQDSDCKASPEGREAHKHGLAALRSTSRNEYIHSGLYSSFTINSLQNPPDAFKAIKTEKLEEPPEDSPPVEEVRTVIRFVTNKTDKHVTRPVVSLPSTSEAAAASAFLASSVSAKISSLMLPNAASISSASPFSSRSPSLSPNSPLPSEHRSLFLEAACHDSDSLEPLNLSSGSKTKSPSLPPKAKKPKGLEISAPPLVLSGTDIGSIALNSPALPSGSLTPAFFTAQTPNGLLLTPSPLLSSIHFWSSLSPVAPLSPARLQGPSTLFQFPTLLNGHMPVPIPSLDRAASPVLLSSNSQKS

SPIC = biological target: T3, SPIC (UniProt Q8N5J4)
T3 sequence: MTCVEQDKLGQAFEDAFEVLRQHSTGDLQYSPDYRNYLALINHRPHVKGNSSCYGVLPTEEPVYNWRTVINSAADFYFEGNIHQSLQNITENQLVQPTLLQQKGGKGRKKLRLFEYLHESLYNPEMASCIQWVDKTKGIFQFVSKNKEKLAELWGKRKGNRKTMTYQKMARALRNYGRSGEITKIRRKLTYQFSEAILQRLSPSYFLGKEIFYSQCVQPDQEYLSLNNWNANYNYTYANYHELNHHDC

ETS2 = biological target: T4, ETS2 (UniProt P15036)
T4 sequence: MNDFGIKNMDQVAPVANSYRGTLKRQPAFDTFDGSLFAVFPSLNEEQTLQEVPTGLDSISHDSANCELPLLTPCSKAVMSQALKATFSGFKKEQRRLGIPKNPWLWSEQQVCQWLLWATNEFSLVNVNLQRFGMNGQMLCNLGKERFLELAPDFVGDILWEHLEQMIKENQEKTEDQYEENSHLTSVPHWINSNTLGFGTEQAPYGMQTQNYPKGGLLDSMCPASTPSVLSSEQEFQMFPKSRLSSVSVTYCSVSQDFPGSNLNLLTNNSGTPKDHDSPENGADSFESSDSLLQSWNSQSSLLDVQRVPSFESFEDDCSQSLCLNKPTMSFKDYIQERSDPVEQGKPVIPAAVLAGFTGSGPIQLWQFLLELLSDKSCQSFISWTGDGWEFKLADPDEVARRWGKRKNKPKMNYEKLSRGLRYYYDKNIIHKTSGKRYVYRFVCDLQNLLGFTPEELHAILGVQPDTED

ETV3 = biological target: T5, ETV3 (UniProt P41162-2)
T5 sequence: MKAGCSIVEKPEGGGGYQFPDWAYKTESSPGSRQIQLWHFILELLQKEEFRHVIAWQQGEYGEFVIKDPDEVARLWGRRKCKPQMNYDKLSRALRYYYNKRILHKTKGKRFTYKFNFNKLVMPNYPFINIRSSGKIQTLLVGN

| Sequence | binding signal (ELK1) | binding signal (ELK3) | binding signal (SPIC) | binding signal (ETS2) | binding signal (ETV3) |
| --- | --- | --- | --- | --- | --- |
| CAGTGG | 0.507 | 0.538 | 0.456 | 0.497 | 0.5 |
| GTGACG | 0.666 | 0.648 | 0.652 | 0.657 | 0.745 |
| GCATAG | 0.791 | 0.769 | 0.814 | 0.877 | 0.845 |
| AGCTGG | 0.999 | 0.822 | 0.968 | 0.908 | 0.898 |
| GTGAAC | 0.832 | 0.774 | 0.821 | 0.821 | 0.816 |
| AGCCGT | 0.497 | 0.425 | 0.434 | 0.464 | 0.489 |
| GGCACG | 0.833 | 0.882 | 0.806 | 0.786 | 0.846 |
| ACGTCG | 0.677 | 0.622 | 0.538 | 0.628 | 0.649 |
| AGTTCG | 0.711 | 0.832 | 0.931 | 0.736 | 0.729 |
| AAGGCG | 0.718 | 0.729 | 0.708 | 0.641 | 0.705 |
| GGGTGT | 0.697 | 0.744 | 0.759 | 0.772 | 0.773 |
| AGACAT | 0.818 | 0.815 | 0.87 | 0.811 | 0.84 |
| AGCGTG | 0.333 | 0.346 | 0.37 | 0.353 | 0.416 |
| GGACTG | 0.73 | 0.632 | 0.647 | 0.63 | 0.717 |
| CATGAG | 0.674 | 0.785 | 0.722 | 0.728 | 0.702 |
| CCGGGG | 0.81 | 0.728 | 0.849 | 0.764 | 0.766 |
| CGGTGT | 0.779 | 0.742 | 0.744 | 0.742 | 0.729 |
| GGAGTT | 0.454 | 0.458 | 0.544 | 0.478 | 0.43 |
| GGGGAT | 0.679 | 0.608 | 0.593 | 0.712 | 0.629 |
| GCCGTA | 0.837 | 0.847 | 0.661 | 0.766 | 0.896 |

| Sequence | binding signal (ELK1) | binding signal (ELK3) | binding signal (SPIC) | binding signal (ETS2) | binding signal (ETV3) |
| --- | --- | --- | --- | --- | --- |
| GTCAGG | 0.534 | 0.54 | 0.544 | 0.54 | 0.525 |
| TGGGCC | 0.9 | 0.82 | 0.951 | 0.969 | 0.87 |
| AGGGCA | 0.855 | 0.807 | 0.692 | 0.869 | 0.845 |
| AGACAA | 0.846 | 0.792 | 0.813 | 0.8 | 0.784 |
| ACCCAG | 0.714 | 0.709 | 0.679 | 0.691 | 0.687 |
| CGGCGG | 0.669 | 0.696 | 0.62 | 0.573 | 0.601 |
| GTCGCG | 0.672 | 0.601 | 0.705 | 0.639 | 0.617 |
| GTGCGT | 0.634 | 0.631 | 0.503 | 0.657 | 0.582 |
| AAGTGA | 0.62 | 0.681 | 0.635 | 0.581 | 0.698 |
| GACTGA | 0.852 | 0.652 | 0.845 | 0.813 | 0.897 |
| AACCAG | 0.844 | 0.773 | 0.847 | 0.894 | 0.864 |
| AGGGGA | 0.58 | 0.634 | 0.622 | 0.651 | 0.63 |
| GTCAGA | 0.663 | 0.566 | 0.664 | 0.612 | 0.63 |
| ACGTGG | 0.557 | 0.502 | 0.676 | 0.614 | 0.628 |
| GGGAGA | 0.34 | 0.291 | 0.389 | 0.319 | 0.337 |
| TGCGGG | 0.813 | 0.776 | 0.801 | 0.79 | 0.795 |
| GGTACG | 0.851 | 0.782 | 0.965 | 0.847 | 0.795 |
| GGACCC | 0.791 | 0.86 | 0.828 | 0.781 | 0.866 |
| CGTGTA | 0.625 | 0.676 | 0.611 | 0.652 | 0.654 |
| GCATGT | 0.773 | 0.705 | 0.895 | 0.735 | 0.788 |

| Sequence | binding signal (ELK1) | binding signal (ELK3) | binding signal (SPIC) | binding signal (ETS2) | binding signal (ETV3) |
| --- | --- | --- | --- | --- | --- |
| GACGTC | 0.825 | 0.911 | 0.7 | 0.844 | 0.808 |
| GCCAGC | 0.719 | 0.789 | 0.796 | 0.721 | 0.755 |
| ACGAGT | 0.743 | 0.859 | 0.716 | 0.732 | 0.696 |
| TAGTCG | 0.467 | 0.554 | 0.474 | 0.498 | 0.427 |
| CCAGGT | 0.784 | 0.74 | 0.696 | 0.68 | 0.775 |
| CAGTGC | 0.721 | 0.805 | 0.798 | 0.792 | 0.769 |
| CCAGTG | 0.462 | 0.438 | 0.379 | 0.465 | 0.483 |
| TGTGTC | 0.683 | 0.666 | 0.717 | 0.796 | 0.771 |
| GGTGAA | 0.762 | 0.721 | 0.729 | 0.774 | 0.807 |
| GCGGAC | 0.683 | 0.659 | 0.58 | 0.7 | 0.642 |
| TCGGAT | 0.447 | 0.504 | 0.6 | 0.531 | 0.498 |
| CGTGGG | 0.372 | 0.342 | 0.361 | 0.382 | 0.337 |
| CCAGGC | 0.439 | 0.449 | 0.438 | 0.447 | 0.439 |
| GCTGGG | 0.808 | 0.84 | 0.685 | 0.879 | 0.792 |
| AGACCG | 0.48 | 0.505 | 0.478 | 0.448 | 0.445 |
| CCAGTT | 0.631 | 0.63 | 0.631 | 0.625 | 0.658 |
| GGGCGC | 0.605 | 0.655 | 0.62 | 0.56 | 0.58 |
| CGTAGG | 0.688 | 0.719 | 0.846 | 0.679 | 0.678 |
| CAGGAC | 0.778 | 0.771 | 0.638 | 0.82 | 0.818 |
| ATGAGA | 0.872 | 0.919 | 0.906 | 0.93 | 0.822 |

Some entries already given, showing only binding signal (ETV3), binding signal (ETS2) and binding signal (SPIC).
Sequence	binding signal (ETV3)	binding signal (ETS2)	binding signal (SPIC)
GGAGTT	0.43	0.478	0.544
GGGGAT	0.629	0.712	0.593
GCCGTA	0.896	0.766	0.661
